# This is one part of the list.
# Chains of the proteins cited; added tags and fusions are not shown. Lines headed by an entry give the natural chain unless they say otherwise; changes in a name come on top.
# UniProt O60488: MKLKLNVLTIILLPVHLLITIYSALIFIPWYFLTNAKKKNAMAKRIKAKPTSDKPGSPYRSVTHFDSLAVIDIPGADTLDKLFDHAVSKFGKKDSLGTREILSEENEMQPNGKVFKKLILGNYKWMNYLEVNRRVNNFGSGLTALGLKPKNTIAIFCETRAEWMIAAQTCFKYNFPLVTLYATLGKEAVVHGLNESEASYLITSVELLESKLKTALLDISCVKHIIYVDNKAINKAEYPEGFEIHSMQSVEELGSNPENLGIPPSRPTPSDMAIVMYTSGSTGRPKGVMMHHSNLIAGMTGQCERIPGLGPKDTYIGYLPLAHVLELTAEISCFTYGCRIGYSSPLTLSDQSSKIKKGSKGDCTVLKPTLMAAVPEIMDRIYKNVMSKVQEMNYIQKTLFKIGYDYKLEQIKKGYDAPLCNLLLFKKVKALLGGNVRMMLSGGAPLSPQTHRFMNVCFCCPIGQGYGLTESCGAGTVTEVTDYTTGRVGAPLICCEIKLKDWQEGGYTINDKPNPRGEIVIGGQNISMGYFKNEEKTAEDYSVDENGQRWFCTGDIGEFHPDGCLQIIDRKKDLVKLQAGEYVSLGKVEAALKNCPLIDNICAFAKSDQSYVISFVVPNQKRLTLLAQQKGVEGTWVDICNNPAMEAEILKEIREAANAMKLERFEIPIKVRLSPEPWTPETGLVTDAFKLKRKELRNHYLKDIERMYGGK
# UniProt P30566: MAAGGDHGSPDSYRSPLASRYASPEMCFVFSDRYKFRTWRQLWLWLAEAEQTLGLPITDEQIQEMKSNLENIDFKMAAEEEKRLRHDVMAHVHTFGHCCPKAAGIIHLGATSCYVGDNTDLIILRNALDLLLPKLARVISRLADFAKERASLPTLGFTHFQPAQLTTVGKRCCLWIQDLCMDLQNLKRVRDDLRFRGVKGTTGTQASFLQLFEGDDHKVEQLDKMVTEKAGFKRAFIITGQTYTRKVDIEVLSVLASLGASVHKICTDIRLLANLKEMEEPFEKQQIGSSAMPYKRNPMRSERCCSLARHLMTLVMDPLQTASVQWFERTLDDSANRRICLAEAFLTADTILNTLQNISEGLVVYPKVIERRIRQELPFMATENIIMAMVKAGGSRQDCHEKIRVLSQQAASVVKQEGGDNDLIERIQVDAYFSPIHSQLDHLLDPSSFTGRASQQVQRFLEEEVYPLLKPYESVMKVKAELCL
# UniProt Q9NZ32, whole entry, looked up: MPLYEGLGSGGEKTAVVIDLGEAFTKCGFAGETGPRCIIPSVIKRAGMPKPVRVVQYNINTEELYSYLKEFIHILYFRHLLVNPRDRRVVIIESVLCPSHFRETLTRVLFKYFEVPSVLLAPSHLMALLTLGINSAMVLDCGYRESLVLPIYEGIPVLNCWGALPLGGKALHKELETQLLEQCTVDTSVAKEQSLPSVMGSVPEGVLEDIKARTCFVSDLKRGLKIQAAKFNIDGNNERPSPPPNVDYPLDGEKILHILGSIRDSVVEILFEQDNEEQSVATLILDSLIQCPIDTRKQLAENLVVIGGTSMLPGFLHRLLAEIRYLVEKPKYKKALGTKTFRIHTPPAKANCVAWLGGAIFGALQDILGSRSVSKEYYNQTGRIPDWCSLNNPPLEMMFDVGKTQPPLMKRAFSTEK
# UniProt Q9BUB4: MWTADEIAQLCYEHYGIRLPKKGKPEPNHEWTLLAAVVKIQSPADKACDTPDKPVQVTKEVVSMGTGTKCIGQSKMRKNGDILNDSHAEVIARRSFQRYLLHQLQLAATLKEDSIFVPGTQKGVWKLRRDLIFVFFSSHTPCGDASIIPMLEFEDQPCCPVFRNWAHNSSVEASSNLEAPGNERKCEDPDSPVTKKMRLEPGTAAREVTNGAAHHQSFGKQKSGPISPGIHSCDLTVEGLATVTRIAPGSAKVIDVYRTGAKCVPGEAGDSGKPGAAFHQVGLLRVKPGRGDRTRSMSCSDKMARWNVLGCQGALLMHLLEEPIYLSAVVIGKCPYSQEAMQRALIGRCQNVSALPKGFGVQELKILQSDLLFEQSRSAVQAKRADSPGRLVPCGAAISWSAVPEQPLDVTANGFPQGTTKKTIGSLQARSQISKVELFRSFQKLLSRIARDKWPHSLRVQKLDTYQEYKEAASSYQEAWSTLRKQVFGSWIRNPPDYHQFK
# UniProt Q6ULP2: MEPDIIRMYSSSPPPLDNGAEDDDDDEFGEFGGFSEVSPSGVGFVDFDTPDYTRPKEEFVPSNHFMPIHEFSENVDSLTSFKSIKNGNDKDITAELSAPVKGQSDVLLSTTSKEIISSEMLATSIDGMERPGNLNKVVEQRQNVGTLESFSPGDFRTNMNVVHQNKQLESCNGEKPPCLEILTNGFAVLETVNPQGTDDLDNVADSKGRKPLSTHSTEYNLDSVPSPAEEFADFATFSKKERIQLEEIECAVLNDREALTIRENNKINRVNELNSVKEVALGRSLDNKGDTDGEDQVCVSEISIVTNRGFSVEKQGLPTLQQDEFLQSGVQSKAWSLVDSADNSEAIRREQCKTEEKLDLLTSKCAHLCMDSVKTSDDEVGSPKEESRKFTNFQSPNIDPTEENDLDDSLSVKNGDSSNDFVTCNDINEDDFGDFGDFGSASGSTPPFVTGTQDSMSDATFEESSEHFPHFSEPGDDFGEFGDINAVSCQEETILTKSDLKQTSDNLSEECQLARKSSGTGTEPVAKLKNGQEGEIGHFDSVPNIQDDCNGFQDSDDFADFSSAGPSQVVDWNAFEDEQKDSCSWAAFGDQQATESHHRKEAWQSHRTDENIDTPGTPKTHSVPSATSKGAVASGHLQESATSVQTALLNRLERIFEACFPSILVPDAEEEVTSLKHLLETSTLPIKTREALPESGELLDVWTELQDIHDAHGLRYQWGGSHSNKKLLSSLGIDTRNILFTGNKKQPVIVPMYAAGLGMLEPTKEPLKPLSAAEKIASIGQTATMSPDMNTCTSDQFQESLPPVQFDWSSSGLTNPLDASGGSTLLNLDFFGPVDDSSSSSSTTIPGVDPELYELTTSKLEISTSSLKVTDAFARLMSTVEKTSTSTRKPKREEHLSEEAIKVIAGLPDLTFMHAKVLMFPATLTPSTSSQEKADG
# UniProt O14672: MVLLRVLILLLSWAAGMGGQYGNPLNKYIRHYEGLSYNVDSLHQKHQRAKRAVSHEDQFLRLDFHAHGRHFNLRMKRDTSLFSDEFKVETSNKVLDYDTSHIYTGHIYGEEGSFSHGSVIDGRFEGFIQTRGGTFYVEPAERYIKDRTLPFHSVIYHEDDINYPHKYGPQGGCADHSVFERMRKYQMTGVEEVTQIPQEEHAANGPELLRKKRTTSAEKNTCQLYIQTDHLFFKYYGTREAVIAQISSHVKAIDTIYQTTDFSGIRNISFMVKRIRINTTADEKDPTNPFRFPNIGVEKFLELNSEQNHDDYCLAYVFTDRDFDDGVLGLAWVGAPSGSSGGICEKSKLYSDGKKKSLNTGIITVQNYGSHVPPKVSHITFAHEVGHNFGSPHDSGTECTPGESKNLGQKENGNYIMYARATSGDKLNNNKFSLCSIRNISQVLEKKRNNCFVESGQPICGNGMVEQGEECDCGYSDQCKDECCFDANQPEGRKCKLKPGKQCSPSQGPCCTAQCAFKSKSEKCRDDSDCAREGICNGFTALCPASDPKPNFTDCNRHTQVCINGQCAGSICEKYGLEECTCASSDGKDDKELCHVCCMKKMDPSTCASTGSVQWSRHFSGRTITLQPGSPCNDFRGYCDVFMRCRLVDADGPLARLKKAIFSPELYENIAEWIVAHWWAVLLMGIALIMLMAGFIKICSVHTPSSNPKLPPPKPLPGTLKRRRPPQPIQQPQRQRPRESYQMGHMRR
# UniProt Q9Y305: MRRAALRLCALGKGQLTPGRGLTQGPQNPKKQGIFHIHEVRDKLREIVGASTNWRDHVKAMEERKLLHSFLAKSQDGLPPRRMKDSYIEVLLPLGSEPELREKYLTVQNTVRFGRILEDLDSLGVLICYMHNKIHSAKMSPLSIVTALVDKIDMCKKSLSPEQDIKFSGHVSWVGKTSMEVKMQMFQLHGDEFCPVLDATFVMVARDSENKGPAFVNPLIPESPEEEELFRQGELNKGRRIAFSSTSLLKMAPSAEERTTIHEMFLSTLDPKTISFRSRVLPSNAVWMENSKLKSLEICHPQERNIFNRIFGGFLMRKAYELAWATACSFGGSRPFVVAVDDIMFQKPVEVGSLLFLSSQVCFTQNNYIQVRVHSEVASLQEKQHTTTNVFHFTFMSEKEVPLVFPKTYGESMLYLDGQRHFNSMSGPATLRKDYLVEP
# UniProt P11766: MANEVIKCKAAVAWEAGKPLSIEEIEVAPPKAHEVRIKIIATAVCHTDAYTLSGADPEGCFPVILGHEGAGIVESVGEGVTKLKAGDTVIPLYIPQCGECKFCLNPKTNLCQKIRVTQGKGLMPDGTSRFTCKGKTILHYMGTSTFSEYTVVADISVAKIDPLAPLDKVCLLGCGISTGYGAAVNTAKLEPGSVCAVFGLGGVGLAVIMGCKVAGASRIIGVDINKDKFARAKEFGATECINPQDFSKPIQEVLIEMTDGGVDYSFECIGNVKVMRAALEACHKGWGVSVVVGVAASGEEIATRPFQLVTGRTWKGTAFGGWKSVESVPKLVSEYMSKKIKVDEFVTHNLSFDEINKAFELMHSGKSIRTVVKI
# UniProt O95490: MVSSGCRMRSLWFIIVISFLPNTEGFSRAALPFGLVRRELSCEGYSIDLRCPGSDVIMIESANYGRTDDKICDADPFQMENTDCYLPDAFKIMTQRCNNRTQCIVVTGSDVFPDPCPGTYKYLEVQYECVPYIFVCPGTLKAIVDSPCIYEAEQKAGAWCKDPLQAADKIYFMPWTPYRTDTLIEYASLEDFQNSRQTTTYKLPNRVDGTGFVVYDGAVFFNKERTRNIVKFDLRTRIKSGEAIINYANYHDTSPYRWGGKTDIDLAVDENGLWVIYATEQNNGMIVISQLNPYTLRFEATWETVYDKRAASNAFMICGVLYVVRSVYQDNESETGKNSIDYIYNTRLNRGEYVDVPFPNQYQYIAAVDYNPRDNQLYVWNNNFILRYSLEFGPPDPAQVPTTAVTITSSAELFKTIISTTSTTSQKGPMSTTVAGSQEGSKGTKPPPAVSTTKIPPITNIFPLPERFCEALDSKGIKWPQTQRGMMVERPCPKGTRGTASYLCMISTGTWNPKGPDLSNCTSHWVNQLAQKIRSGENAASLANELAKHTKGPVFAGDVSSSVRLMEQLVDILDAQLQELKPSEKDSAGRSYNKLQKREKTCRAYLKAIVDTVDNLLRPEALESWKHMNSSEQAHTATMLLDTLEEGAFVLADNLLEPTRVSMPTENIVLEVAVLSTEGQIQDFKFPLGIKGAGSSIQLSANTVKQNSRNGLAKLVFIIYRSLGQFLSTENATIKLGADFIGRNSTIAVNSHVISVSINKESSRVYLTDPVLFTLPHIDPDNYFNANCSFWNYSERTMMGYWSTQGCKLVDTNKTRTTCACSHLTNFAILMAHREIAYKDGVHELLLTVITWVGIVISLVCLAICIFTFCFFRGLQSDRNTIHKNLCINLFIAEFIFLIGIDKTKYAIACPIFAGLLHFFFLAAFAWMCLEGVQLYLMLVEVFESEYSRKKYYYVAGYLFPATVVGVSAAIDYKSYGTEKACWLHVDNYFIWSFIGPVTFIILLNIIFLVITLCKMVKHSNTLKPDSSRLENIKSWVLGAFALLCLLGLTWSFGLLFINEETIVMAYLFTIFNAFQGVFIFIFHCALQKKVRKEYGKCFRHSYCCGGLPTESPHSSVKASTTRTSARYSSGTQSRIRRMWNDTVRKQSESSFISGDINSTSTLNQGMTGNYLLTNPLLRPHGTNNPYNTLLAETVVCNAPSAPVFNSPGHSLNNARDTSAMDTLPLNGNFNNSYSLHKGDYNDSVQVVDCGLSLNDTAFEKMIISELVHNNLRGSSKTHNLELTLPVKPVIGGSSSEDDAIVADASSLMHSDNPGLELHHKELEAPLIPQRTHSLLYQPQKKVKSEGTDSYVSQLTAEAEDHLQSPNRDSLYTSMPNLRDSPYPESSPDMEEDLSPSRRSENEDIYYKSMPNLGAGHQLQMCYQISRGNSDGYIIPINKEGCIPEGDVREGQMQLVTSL
# UniProt P00813: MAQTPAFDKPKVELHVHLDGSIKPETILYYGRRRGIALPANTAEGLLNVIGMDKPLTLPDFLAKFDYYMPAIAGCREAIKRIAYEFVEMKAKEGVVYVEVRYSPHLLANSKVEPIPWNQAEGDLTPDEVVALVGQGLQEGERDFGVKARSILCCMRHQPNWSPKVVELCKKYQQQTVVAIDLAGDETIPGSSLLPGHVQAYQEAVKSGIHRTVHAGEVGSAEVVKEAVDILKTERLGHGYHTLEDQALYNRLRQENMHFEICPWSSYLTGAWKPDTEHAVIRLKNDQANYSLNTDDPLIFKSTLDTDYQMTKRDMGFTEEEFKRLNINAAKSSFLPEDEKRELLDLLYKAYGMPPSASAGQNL
# Compound: Cc1cc(ccc1-c1ccccc1)C(=O)N1CCCN(CC1)C(=O)CCl [compound 10]
# Assay: probe-labelled cysteine peptide fold change vs DMSO (competition) (log2 fold change); higher = less target engagement (more negative = stronger competition)
# Conditions: 10 µM; THP-1; incubation time: 4 h
# 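Note: competitive profiling in live THP-1 cells: cysteine peptides tagged with an iodoacetamide desthiobiotin (IA-DTB) probe, intensity after compound treatment relative to DMSO-treated cells.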
row,Target,probe-labelled cysteine peptide fold change
1,ACSL4_O60488_595_NCPLIDNICAFAK (UniProt O60488),-0.108
2,ADPGK_Q9BRR6_178_VLLCGPVGPK (UniProt Q9BRR6),0.128
3,AFG3L2_Q9Y4W6_313_DVAGCEEAK (UniProt Q9Y4W6),-0.0431
4,ADSL_P30566_266_ICTDIR (UniProt P30566),0.222
5,ACTR10_Q9NZ32_27_CGFAGETGPR (UniProt Q9NZ32),0.211
6,ADAR_P55265_909_GETVNDCHAEIISR (UniProt P55265),0.0579
7,AGL_P35573_234_WIQEHPECAYNLVNSPHLK (UniProt P35573),-0.0163
8,ACTR3B_Q9P1U1_408_DYEEYGPSICR (UniProt Q9P1U1),0.154
9,ADGRL3_Q9HAR2_36_ELSCESYPIELR (UniProt Q9HAR2),-0.163
10,ACSF3_Q4G176_139_KHPAAQLEYVICDSQSSVVLASQEYLELLSPVVR (UniProt Q4G176),0.198
11,ADSL_P30566_99_HDVMAHVHTFGHCCPK (UniProt P30566),-0.0749
12,ADAT1_Q9BUB4_263_CVPGEAGDSGKPGAAFHQVGLLR (UniProt Q9BUB4),-0.00274
13,AFTPH_Q6ULP2_583_DSCSWAAFGDQQATESHHR (UniProt Q6ULP2),-0.0209
14,ACTR3_P61158_8+12_LPACVVDCGTGYTK (UniProt P61158),-0.243
15,ADAM10_O14672_435_FSLCSIR (UniProt O14672),-0.0469
16,ACTR10_Q9NZ32_215_TCFVSDLKR (UniProt Q9NZ32),0.00158
17,ACOT9_Q9Y305_299_SLEICHPQER (UniProt Q9Y305),0.0839
18,ACSL4_O60488_552_WFCTGDIGEFHPDGCLQIIDR (UniProt O60488),-0.176
19,ADH5_P11766_103_FCLNPK (UniProt P11766),-0.0749

# An excerpt of these results, with tabs:
row	Target	probe-labelled cysteine peptide fold change
10	ACSF3_Q4G176_139_KHPAAQLEYVICDSQSSVVLASQEYLELLSPVVR (UniProt Q4G176)	0.198
11	ADSL_P30566_99_HDVMAHVHTFGHCCPK (UniProt P30566)	-0.0749
12	ADAT1_Q9BUB4_263_CVPGEAGDSGKPGAAFHQVGLLR (UniProt Q9BUB4)	-0.00274
13	AFTPH_Q6ULP2_583_DSCSWAAFGDQQATESHHR (UniProt Q6ULP2)	-0.0209
14	ACTR3_P61158_8+12_LPACVVDCGTGYTK (UniProt P61158)	-0.243
15	ADAM10_O14672_435_FSLCSIR (UniProt O14672)	-0.0469
16	ACTR10_Q9NZ32_215_TCFVSDLKR (UniProt Q9NZ32)	0.00158
17	ACOT9_Q9Y305_299_SLEICHPQER (UniProt Q9Y305)	0.0839
18	ACSL4_O60488_552_WFCTGDIGEFHPDGCLQIIDR (UniProt O60488)	-0.176
19	ADH5_P11766_103_FCLNPK (UniProt P11766)	-0.0749

# The results go on.

row,Target,probe-labelled cysteine peptide fold change
1,ADAR_P55265_649_FQYCVAVGAQTFPSVSAPSKK (UniProt P55265),0.159
2,ADGRL2_O95490_1250_GDYNDSVQVVDCGLSLNDTAFEK (UniProt O95490),-0.311
3,AGK_Q53H12_408_LQFFCDPR (UniProt Q53H12),-0.143
4,ADAM9_Q13443_575_LQCENVQEIPVFGIVPAIIQTPSR (UniProt Q13443),0.455
5,ADNP_Q9H2P0_226_CLFMPK (UniProt Q9H2P0),0.111
6,ADGRA2_Q96PE1_196_VVDLGTEFLTCDCHLR (UniProt Q96PE1),0.218
7,ADGRL2_O95490_42_RELSCEGYSIDLR (UniProt O95490),0.175
8,ACSL4_O60488_564_WFCTGDIGEFHPDGCLQIIDR (UniProt O60488),0.122
9,ADSS_P30520_182_MCDLVSDFDGFSER (UniProt P30520),0.103
10,ACSF2_Q96CM8_254_QHLDQLQYNQQFLSCHDPINIQFTSGTTGSPK (UniProt Q96CM8),-0.144
11,AGL_P35573_767_EVPQMCIPGKIEEVVLEAR (UniProt P35573),-0.292
12,ADO_Q96SZ5_183_AEYTEASGPCILTPHR (UniProt Q96SZ5),-0.134
13,ACTN1_P12814_774_ACLISLGYDIGNDPQGEAEFAR (UniProt P12814),0.292
14,ADAM17_P78536_184_VCGYLK (UniProt P78536),0.0974
15,ADA_P00813_262_QENMHFEICPWSSYLTGAWKPDTEHAVIR (UniProt P00813),-0.043
16,ADAM10_O14672_607_DDKELCHVCCMKKMDPSTCASTGSVQWSR (UniProt O14672),-0.0238
17,ADH5_P11766_174_VCLLGCGISTGYGAAVNTAK (UniProt P11766),0.0907
18,ADAT3_Q96EY9_95_DAGSPHALEMLLCLAGPASGPR (UniProt Q96EY9),0.15
